Measurements published in the supplement of paper PMC11264405.

What was measured:
Experiment in all cases: minimum inhibitory concentration
[1] = compound: CC(=O)NC[C@H]1CN(c2ccc(N3CCOCC3)c(F)c2)C(=O)O1 [linezolid]
[2] = compound: CCC[C@@H]1C[C@@H](C(=O)N[C@@H]([C@H]2O[C@H](SC)[C@H](O)[C@@H](O)[C@H]2O)[C@H](C)Cl)N(C)C1 [clindamycin]
[3] = compound: CCc1c(Cl)c(O)c(Cl)c(O)c1C(=O)O[C@H]1[C@H](O)[C@H](OC)[C@H](OC/C2=C\C=C\C[C@H](O)/C(C)=C/[C@H](CC)[C@@H](O[C@@H]3OC(C)(C)[C@@H](OC(=O)C(C)C)[C@H](O)[C@@H]3O)/C(C)=C/C(C)=C/C[C@@H]([C@@H](C)O)OC2=O)O[C@@H]1C [fidaxomicin]
[4] = compound: CN(C)c1cc(NC(=O)CNC(C)(C)C)c(O)c2c1C[C@H]1C[C@H]3[C@H](N(C)C)C(O)=C(C(N)=O)C(=O)[C@@]3(O)C(O)=C1C2=O [tigecycline]
[5] = compound: CN[C@H](CC(C)C)C(=O)N[C@H]1C(=O)N[C@@H](CC(N)=O)C(=O)N[C@H]2C(=O)N[C@H]3C(=O)N[C@H](C(=O)N[C@H](C(=O)O)c4cc(O)cc(O)c4-c4cc3ccc4O)[C@H](O)c3ccc(c(Cl)c3)Oc3cc2cc(c3O[C@@H]2O[C@H](CO)[C@@H](O)[C@H](O)[C@H]2O[C@H]2C[C@](C)(N)[C@H](O)[C@H](C)O2)Oc2ccc(cc2Cl)[C@H]1O [vancomycin]
[6] = compound: CO[C@H]1/C=C/O[C@@]2(C)Oc3c(C)c(O)c4c(O)c(c(/C=N/N5CCN(C)CC5)c(O)c4c3C2=O)NC(=O)/C(C)=C\C=C\[C@H](C)[C@H](O)[C@@H](C)[C@@H](O)[C@@H](C)[C@H](OC(C)=O)[C@@H]1C [rifampicin]
[7] = compound: C[C@@H](O)[C@H]1C(=O)N2C(C(=O)O)=C(SCCNC=N)C[C@H]12 [imipenem]
[8] = compound: C[C@@H](O)[C@H]1C(=O)N2C(C(=O)O)=C(S[C@@H]3CN[C@H](C(=O)N(C)C)C3)[C@H](C)[C@H]12 [meropenem]
[9] = compound: Cc1ncc([N+](=O)[O-])n1CCO [metronidazole]

Row | Test System | minimum inhibitory concentration [1] | minimum inhibitory concentration [2] | minimum inhibitory concentration [3] | minimum inhibitory concentration [4] | minimum inhibitory concentration [5] | minimum inhibitory concentration [6] | minimum inhibitory concentration [7] | minimum inhibitory concentration [8] | minimum inhibitory concentration [9]
1 | Clostridioides difficile PCR ribotype 106 isolate #207 (European region: South, country: Spain, isolate source: Human, ribotype: 106) | 2 µg/mL | 2 µg/mL | 0.06 µg/mL | 0.06 µg/mL | 1 µg/mL | < 0.001 µg/mL | 4 µg/mL | 4 µg/mL | 0.25 µg/mL
2 | Clostridioides difficile PCR ribotype 106 isolate #208 (European region: South, country: Spain, isolate source: Human, ribotype: 106) | 2 µg/mL | 8 µg/mL | 0.06 µg/mL | < 0.03 µg/mL | 1 µg/mL | < 0.001 µg/mL | 4 µg/mL | 4 µg/mL | 0.25 µg/mL
3 | Clostridioides difficile PCR ribotype 106 isolate #209 (European region: South, country: Spain, isolate source: Human, ribotype: 106) | 2 µg/mL | 8 µg/mL | 0.03 µg/mL | 0.06 µg/mL | 0.5 µg/mL | < 0.001 µg/mL | 4 µg/mL | 4 µg/mL | < 0.125 µg/mL
4 | Clostridioides difficile PCR ribotype 115 isolate #210 (European region: North, country: UK, isolate source: Human, ribotype: 115) | 1 µg/mL | 4 µg/mL | 0.125 µg/mL | < 0.03 µg/mL | 0.5 µg/mL | < 0.001 µg/mL | 2 µg/mL | 4 µg/mL | < 0.125 µg/mL
5 | Clostridioides difficile PCR ribotype 115 isolate #211 (European region: East, country: Romania, isolate source: Human, ribotype: 115) | 2 µg/mL | 0.5 µg/mL | 0.015 µg/mL | < 0.03 µg/mL | 0.5 µg/mL | 0.008 µg/mL | 4 µg/mL | 2 µg/mL | 0.25 µg/mL
6 | Clostridioides difficile PCR ribotype 126 isolate #212 (European region: South, country: Spain, isolate source: Human, ribotype: 126) | 2 µg/mL | 1 µg/mL | 0.06 µg/mL | 0.06 µg/mL | 1 µg/mL | < 0.001 µg/mL | 4 µg/mL | 2 µg/mL | 0.25 µg/mL
7 | Clostridioides difficile PCR ribotype 126 isolate #213 (European region: South, country: Italy, isolate source: Human, ribotype: 126) | 2 µg/mL | > 128 µg/mL | 0.03 µg/mL | < 0.03 µg/mL | 1 µg/mL | < 0.001 µg/mL | 8 µg/mL | 2 µg/mL | 0.25 µg/mL
8 | Clostridioides difficile PCR ribotype 126 isolate #214 (European region: South, country: Italy, isolate source: Human, ribotype: 126) | 8 µg/mL | > 128 µg/mL | 0.03 µg/mL | < 0.03 µg/mL | 0.5 µg/mL | < 0.001 µg/mL | 2 µg/mL | 2 µg/mL | < 0.125 µg/mL
9 | Clostridioides difficile PCR ribotype 126 isolate #378 (European region: South, country: Spain, isolate source: Animal, ribotype: 126) | 2 µg/mL | 8 µg/mL | 0.06 µg/mL | < 0.03 µg/mL | 1 µg/mL | < 0.001 µg/mL | 4 µg/mL | 2 µg/mL | 0.25 µg/mL
10 | Clostridioides difficile PCR ribotype 126 isolate #379 (European region: West, country: France, isolate source: Animal, ribotype: 126) | 2 µg/mL | 16 µg/mL | 0.03 µg/mL | < 0.03 µg/mL | 0.5 µg/mL | < 0.001 µg/mL | 2 µg/mL | 2 µg/mL | 0.25 µg/mL
11 | Clostridioides difficile PCR ribotype 126 isolate #380 (European region: West, country: France, isolate source: Animal, ribotype: 126) | 16 µg/mL | 64 µg/mL | 0.03 µg/mL | < 0.03 µg/mL | 1 µg/mL | < 0.001 µg/mL | 2 µg/mL | 4 µg/mL | < 0.125 µg/mL
12 | Clostridioides difficile PCR ribotype 126 isolate #381 (European region: West, country: France, isolate source: Animal, ribotype: 126) | 2 µg/mL | 2 µg/mL | 0.015 µg/mL | < 0.03 µg/mL | 1 µg/mL | < 0.001 µg/mL | 2 µg/mL | 4 µg/mL | < 0.125 µg/mL
13 | Clostridioides difficile PCR ribotype 126 isolate #382 (European region: West, country: France, isolate source: Animal, ribotype: 126) | 2 µg/mL | 2 µg/mL | 0.03 µg/mL | < 0.03 µg/mL | 1 µg/mL | < 0.001 µg/mL | 2 µg/mL | 2 µg/mL | 0.25 µg/mL
14 | Clostridioides difficile PCR ribotype 126 isolate #383 (European region: West, country: France, isolate source: Animal, ribotype: 126) | 2 µg/mL | 8 µg/mL | 0.03 µg/mL | < 0.03 µg/mL | 1 µg/mL | < 0.001 µg/mL | 2 µg/mL | 4 µg/mL | < 0.125 µg/mL
15 | Clostridioides difficile PCR ribotype 126 isolate #384 (European region: West, country: France, isolate source: Animal, ribotype: 126) | 2 µg/mL | 8 µg/mL | 0.03 µg/mL | < 0.03 µg/mL | 1 µg/mL | < 0.001 µg/mL | 2 µg/mL | 2 µg/mL | < 0.125 µg/mL
16 | Clostridioides difficile PCR ribotype 126 isolate #385 (European region: West, country: France, isolate source: Animal, ribotype: 126) | 2 µg/mL | 2 µg/mL | 0.03 µg/mL | < 0.03 µg/mL | 1 µg/mL | < 0.001 µg/mL | 2 µg/mL | 2 µg/mL | < 0.125 µg/mL
17 | Clostridioides difficile PCR ribotype 126 isolate #386 (European region: West, country: France, isolate source: Animal, ribotype: 126) | 2 µg/mL | 4 µg/mL | 0.004 µg/mL | 0.06 µg/mL | 1 µg/mL | < 0.001 µg/mL | 2 µg/mL | 2 µg/mL | < 0.125 µg/mL
18 | Clostridioides difficile PCR ribotype 126 isolate #387 (European region: West, country: France, isolate source: Animal, ribotype: 126) | 2 µg/mL | 4 µg/mL | 0.015 µg/mL | < 0.03 µg/mL | 1 µg/mL | < 0.001 µg/mL | 2 µg/mL | 4 µg/mL | < 0.125 µg/mL
19 | Clostridioides difficile PCR ribotype 126 isolate #388 (European region: West, country: France, isolate source: Animal, ribotype: 126) | 2 µg/mL | 2 µg/mL | 0.03 µg/mL | < 0.03 µg/mL | 1 µg/mL | < 0.001 µg/mL | 2 µg/mL | 2 µg/mL | < 0.125 µg/mL
20 | Clostridioides difficile PCR ribotype 126 isolate #389 (European region: West, country: France, isolate source: Animal, ribotype: 126) | 2 µg/mL | 2 µg/mL | 0.03 µg/mL | < 0.03 µg/mL | 1 µg/mL | < 0.001 µg/mL | 2 µg/mL | 2 µg/mL | < 0.125 µg/mL
21 | Clostridioides difficile PCR ribotype 126 isolate #390 (European region: West, country: France, isolate source: Animal, ribotype: 126) | 2 µg/mL | 2 µg/mL | 0.03 µg/mL | 0.06 µg/mL | 1 µg/mL | < 0.001 µg/mL | 2 µg/mL | 2 µg/mL | 0.25 µg/mL
22 | Clostridioides difficile PCR ribotype 126 isolate #391 (European region: West, country: France, isolate source: Animal, ribotype: 126) | 2 µg/mL | 8 µg/mL | 0.015 µg/mL | < 0.03 µg/mL | 1 µg/mL | < 0.001 µg/mL | 1 µg/mL | 2 µg/mL | 0.25 µg/mL
23 | Clostridioides difficile PCR ribotype 126 isolate #392 (European region: West, country: France, isolate source: Animal, ribotype: 126) | 2 µg/mL | 64 µg/mL | 0.03 µg/mL | < 0.03 µg/mL | 1 µg/mL | < 0.001 µg/mL | 2 µg/mL | 2 µg/mL | 0.25 µg/mL
24 | Clostridioides difficile PCR ribotype 126 isolate #393 (European region: West, country: France, isolate source: Animal, ribotype: 126) | 2 µg/mL | 8 µg/mL | 0.03 µg/mL | < 0.03 µg/mL | 1 µg/mL | < 0.001 µg/mL | 2 µg/mL | 4 µg/mL | 0.25 µg/mL
25 | Clostridioides difficile PCR ribotype 126 isolate #394 (European region: West, country: France, isolate source: Animal, ribotype: 126) | 2 µg/mL | 4 µg/mL | 0.03 µg/mL | < 0.03 µg/mL | 1 µg/mL | < 0.001 µg/mL | 2 µg/mL | 2 µg/mL | < 0.125 µg/mL
26 | Clostridioides difficile PCR ribotype 126 isolate #395 (European region: West, country: Netherlands, isolate source: Animal, ribotype: 126) | 2 µg/mL | 2 µg/mL | 0.03 µg/mL | 0.06 µg/mL | 0.5 µg/mL | < 0.001 µg/mL | 2 µg/mL | 4 µg/mL | < 0.125 µg/mL

Part of the list above in another layout:

| Row | Test System | minimum inhibitory concentration [1] | minimum inhibitory concentration [2] | minimum inhibitory concentration [3] | minimum inhibitory concentration [4] | minimum inhibitory concentration [5] | minimum inhibitory concentration [6] | minimum inhibitory concentration [7] | minimum inhibitory concentration [8] | minimum inhibitory concentration [9] |
| --- | --- | --- | --- | --- | --- | --- | --- | --- | --- | --- |
| 21 | Clostridioides difficile PCR ribotype 126 isolate #390 (European region: West, country: France, isolate source: Animal, ribotype: 126) | 2 µg/mL | 2 µg/mL | 0.03 µg/mL | 0.06 µg/mL | 1 µg/mL | < 0.001 µg/mL | 2 µg/mL | 2 µg/mL | 0.25 µg/mL |
| 22 | Clostridioides difficile PCR ribotype 126 isolate #391 (European region: West, country: France, isolate source: Animal, ribotype: 126) | 2 µg/mL | 8 µg/mL | 0.015 µg/mL | < 0.03 µg/mL | 1 µg/mL | < 0.001 µg/mL | 1 µg/mL | 2 µg/mL | 0.25 µg/mL |
